In data set [1] the target is T1, Csa3b (Sulfolobus islandicus REY15A) (UniProt F0NH47).
T1 sequence (looked up, limits assumed): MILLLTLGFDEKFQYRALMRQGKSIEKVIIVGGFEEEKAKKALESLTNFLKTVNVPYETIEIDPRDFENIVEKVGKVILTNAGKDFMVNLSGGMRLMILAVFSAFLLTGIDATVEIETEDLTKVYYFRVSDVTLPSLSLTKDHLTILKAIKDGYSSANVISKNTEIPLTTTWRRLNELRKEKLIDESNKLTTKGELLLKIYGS
The experiment in a line: LSPR. The note with it: protein immobilized; LSPR (OpenSPR, COOH chip, 20 uL/min, 5 min, 1:1 fit; running buffer not stated); recombinant protein.

Data set [2] addresses T2, Csa3bM (CARF mutant) T6A,R16A,N89A,R95A (Sulfolobus islandicus REY15A) (UniProt F0NH47).
T2 sequence (looked up, limits assumed): T1 sequence (looked up, limits assumed) with T6A, R16A, N89A, R95A
The data set can be described thus: LSPR. The note with it: protein immobilized; LSPR (OpenSPR, COOH chip, 20 uL/min, 5 min, 1:1 fit; running buffer not stated); recombinant protein.

Residue numbers refer to the chain shown, from its start. For at least one entry, the source does not settle the construct or the ends of the probe. Where a protein sequence is shown, tags need not be part of it.

As for “CAAAA [5'-CAAAA-3' (cOA analog, called CA4 in figures)]”, the Kd (usually the concentration at which binding is half-saturated) worked out at 46.1 µM in data set [1] and 123 µM in data set [2].

Values taken from paper PMC7480081.
